Molecules are shown by their SMILES. Over roughly 1,700 compounds, “T2 sensor activation Q score (MG/GFP ratio z-score vs DMSO controls)” has its median near 0.3; the highest 2% begin near 1.9. Some of the results follow.

The subject of the assay is ppGalNAc-T2 sensor. The assay is described as follows: T2 sensor activation Q score (MG/GFP ratio z-score vs DMSO controls) (SD units); higher = more sensor activation (inhibition of ppGalNAc-T2 glycosylation). To be noted: HEK293 sensor cells; 10 µM; 6 h. The protocol: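 Cells were treated with compound at 10 uM for 6 h, then MG/GFP ratio was read by flow cytometry (10,000 cells per well, duplicate wells). Q = (R - R_neg)/SD_neg relative to DMSO vehicle controls; the signal rises when the glycosyltransferase is inhibited.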
For `CCN(CC)c1ccc(/C=C/c2cc(-c3ccccc3)c3ccccc3n2)cc1`, the “T2 sensor activation Q score” value was -6.65.
Turning to `c1ccc(NCCSc2nc3ccccc3s2)cc1`, the “T2 sensor activation Q score” value stood at 0.25.
As for `C[C@]12CC[C@H](O)CC1=CC[C@@H]1[C@@H]2CC[C@]2(C)C(c3cccnc3)=CC[C@@H]12`, the “T2 sensor activation Q score” value was -1.
Turning to `CCOc1ccc(NC(=O)Nc2cc(C(C)C)c(O)cc2C)cc1`, the “T2 sensor activation Q score” value was -0.85.
In the case of `O=C1C=C(c2ccccc2)OC(=O)C1C(=O)c1ccccc1` (configuration not stated), the “T2 sensor activation Q score” value is 0.65.
Regarding `C#CCNc1ccc(C(=O)OCC)cc1`, the “T2 sensor activation Q score” value was -1.25.
Consider `CC1=CC2C(C(O)CC3(C)C2CC(C)C32OCOC23COCO3)C2(C)CC(=CO)C(=O)C=C12` (configuration not stated), for which the “T2 sensor activation Q score” value is 1.7.
For `CNc1ncn(-c2c(C)cccc2C)c(=O)n1`, the “T2 sensor activation Q score” value is -0.6.
`O=[N+]([O-])c1cc(F)c2cccnc2c1O`: the “T2 sensor activation Q score” value is 1.7.
As for `Nc1cc2c3c(cccc3c1)C(=O)N(CCN1CCCC1)C2=O`, the “T2 sensor activation Q score” value was -0.45.
`Cc1ccc(S(=O)(=O)N2CC=C(N)N2)cc1`: the “T2 sensor activation Q score” value is 0.25.
Regarding `COc1ccc(-c2cc(-c3ccccc3)c(-c3ccccc3)nn2)cc1`, the “T2 sensor activation Q score” value was -0.95.
As for `Cc1ccncc1C(N)=O`, the “T2 sensor activation Q score” value turned out to be 1.85.
Consider `CCOC(=O)c1csc(-c2ccc(COC(=O)c3ccccc3)o2)n1`, for which the “T2 sensor activation Q score” value is -1.
As for `CC(C)(C)C1=NN=C2c3ccccc3C(=O)C21` (configuration not stated), the “T2 sensor activation Q score” value is -0.7.
As for `CN(C)Cc1c[nH]c2nccnc12`, the “T2 sensor activation Q score” value was -0.8.
Consider `Cc1c(O)cnc2nn(-c3ccccc3)c(=N)n12`, for which the “T2 sensor activation Q score” value came to 1.4.
Consider `c1ccc(-c2nc3ccccc3s2)nc1`, for which the “T2 sensor activation Q score” value was found to be 0.6.
Consider `Brc1csc2ncccc12`, for which the “T2 sensor activation Q score” value is -0.1.
Take `O=[N+]([O-])c1ccc(Sc2ncccn2)c([N+](=O)[O-])c1`: the “T2 sensor activation Q score” value amounted to 1.
In the case of `C1CCc2nc3c(nc2C1)CCCC3`, the “T2 sensor activation Q score” value amounted to 0.85.
As for `COc1cc(/C=C2\CCOC2=O)cc(OC)c1OC`, the “T2 sensor activation Q score” value is 0.
The result for `Cn1c(=O)c2c(nc(OCCc3ccccc3)n2C)n(C)c1=O` reads -0.25.
As for `CO[C@H]1C[C@@H]2CC[C@@H](C)[C@@](O)(O2)C(=O)C(=O)N2CCCC[C@H]2C(=O)O[C@H]([C@H](C)C[C@@H]2CC[C@@H](OC(=O)C(C)(CO)CO)[C@H](OC)C2)CC(=O)[C@H](C)/C=C(\C)[C@@H](O)[C@@H](OC)C(=O)[C@H](C)C[C@H](C)/C=C/C=C/C=C/1C`, the “T2 sensor activation Q score” value was -0.5.
`COC1OC2COC(c3ccccc3)OC2C(=O)C1NC(=O)c1ccccc1` (configuration not stated): the “T2 sensor activation Q score” value turned out to be 0.9.
With `O=C(O)/C(Cc1cn[nH]n1)=N\O`, the “T2 sensor activation Q score” value is -0.35.
On to `CNC(=O)OCN1C(=O)C2CC=CCC2C1=O` (configuration not stated), for which the “T2 sensor activation Q score” value stood at 0.95.
For `Cc1ccc(NC(=O)N2CCN(C)CC2)cc1NC(=O)N1CCN(C)CC1`, the “T2 sensor activation Q score” value was 0.45.
As for `CN(C)c1ccc(/C=C2/C=C(c3ccc4c(c3)CCCC4)OC2=O)cc1`, the “T2 sensor activation Q score” value is -0.75.
The result for `C1CCC(NC2=NCCO2)CC1` reads -0.8; that for `Cc1cccc(C)c1NC(=O)NCc1ccco1`, -0.85.
The same measure for `Cc1nc(Nc2ccc(F)cc2)nc(Nc2ccc(F)cc2)c1[N+](=O)[O-]`: -0.35.
Turning to `Cc1ccc(S(=O)(=O)NNC(=O)C23CCC(CC2)C3)cc1`, the “T2 sensor activation Q score” value was found to be 1.95.
With `C=CCN=C(NC#N)SC`, the “T2 sensor activation Q score” value stood at 1.35.
Regarding `Nc1ncnc2c1ncn2C=C=CCO`, the “T2 sensor activation Q score” value is 0.15.
As to `Cc1ccc(Nc2nccc(N(C)c3ccc4c(C)n(C)nc4c3)n2)cc1S(N)(=O)=O`, the “T2 sensor activation Q score” value was 0.95.
The result for `COc1ccc2c(C)cc(C)nc2n1` reads -0.2; that for `CC(C)(C)C(=O)Nc1ccc(NC(=O)C(C)(C)C)cc1`, -1.4; that for `CCOC(=O)c1[nH]c(CO)c(C(=O)OCC)c1C`, 0.15.
For the molecule `Cc1nc(N)nc(Cl)c1CCC1OCCO1`, the “T2 sensor activation Q score” value was determined as 1.7.
As for `CCCOc1ccc(-c2nc(-c3ccc(N)cc3)cs2)cc1`, the “T2 sensor activation Q score” value is 0.2.
As to `COC(=O)C1=C(C)NC(C)=C(C(=O)OC)C(N2C(=O)CCC2=O)C1` (configuration not stated), the “T2 sensor activation Q score” value is -0.65.
On to `COC(=O)c1cc(C)c(C)cc1NC1OC(CO)C(O)C1O` (configuration not stated), for which the “T2 sensor activation Q score” value was determined as 1.65.
Take `Cc1c(O)ccc2c(O)c(NC(=O)c3ccc4c(c3)CCC(C)(C)O4)c(=O)oc12`: the “T2 sensor activation Q score” value is 0.45.
`CN1C=C/C(=C\[N+](=O)[O-])N(C)C1=O`: the “T2 sensor activation Q score” value came out at 0.7.
The same measure for `O=C(Nc1nnc(C(F)(F)F)s1)c1c(F)cccc1F`: -0.85; for `CN1C(=O)c2ccccc2Cc2c(NCc3ccccc3)ncnc21`: -0.35; for `O=c1cc[nH]c2c(Cl)cccc12`: -1.
As to `Nc1nc(N)c(N=Nc2ccc(S(N)(=O)=O)cc2)c(=O)[nH]1`, the “T2 sensor activation Q score” value came out at 0.85.
The same measure for `O=C(Nc1ccccc1)C1=C(Nc2ccccc2)CSC1`: -1.55; for `Cc1cc2nc(-c3ccccn3)c(-c3ccccn3)nc2cc1C`: 2.4.
For the molecule `Nc1ccc(Nc2ccccc2)c(S(=O)(=O)O)c1`, the “T2 sensor activation Q score” value turned out to be 0.65.
With `NC(=O)Nc1ccc(Nc2ccccc2)cc1`, the “T2 sensor activation Q score” value worked out at 0.35.
The result for `O=C(O)c1cc2cc(OCc3ccccc3)ccc2[nH]1` reads 0.95; that for `COc1cc(O)c(C(=O)/C=C/c2ccccc2)c(OC)c1`, -0.35; that for `CCSc1nc(=S)cc(C)[nH]1`, -0.1.
Regarding `CC(C)Oc1ccc(C(=O)O)cc1`, the “T2 sensor activation Q score” value came to 0.15.
The result for `O=[N+]([O-])c1ccc2c3ccccc3[s+]([O-])c2c1` (configuration not stated) reads 0.25.
As to `c1ccc2c(c1)Nc1cc3ccccc3cc1S2`, the “T2 sensor activation Q score” value worked out at 1.75.
On to `CS/C(=C\c1ccc(C(=O)c2ccc(C)cc2)n1C)[S+](C)[O-]` (configuration not stated), for which the “T2 sensor activation Q score” value came out at 5.35.
For the molecule `O=c1[nH]cnc2c1ncn2Cc1ccc([N+](=O)[O-])cc1`, the “T2 sensor activation Q score” value was -0.6.
The result for `CC1CCCC(CC(=O)O)(CC(=O)O)C1` (configuration not stated) reads 0.2.

(Values after the supplement of paper PMC5407854, “Inhibitor of ppGalNAc-T3-mediated O-glycosylation blocks cancer cell invasiveness and lowers FGF23 levels” (eLife, 2017).)
